Source: the supplement of paper PMC4683952
The list shows a part of the results. No stated cut-off is given here; in the data, active = 2 or more and inactive = the rest. Single values are uncertain here, since repeats match poorly.

These compounds were tested on Lgr5 (MarsCy1-Lgr5-EGFP, U2OS) (assay: cell-surface Lgr5 expression (SCi1 fluorescence, background-subtracted) relative to WT DMSO (fold of DMSO control); higher = more Lgr5 at the plasma membrane). Details: U2OS MarsCy1-Lgr5-EGFP stable; treatment time: overnight; library: ActiProbe-5K (TimTec); 25 µM.

cell-surface Lgr5 expression, inactive:
CSc1nc(N)nc(SCC(=O)C(C)(C)C)c1C#N 1.35, O=c1[nH]cnc2c1ncn2[C@H]1C[C@H](O)[C@@H](CO)O1 1.08, c1ccc(Cn2c(CSc3nc4ccccc4o3)nc3ccccc32)cc1 0.924, CCOC(=O)Cc1c[nH][nH]c1=O 0.82, Cn1c(=O)[nH]c(=O)c2c1nc(Br)n2CCC(=O)O 1.34, Fc1ccccc1/C=N\n1c(S)nnc1-c1ccccc1 1.15, S=C(Nc1ccccc1)Nc1ccccc1Br 1.07, C1(=NC(N\C1=C(\C#N)C#N)C(C)C)N (stereo not given) 0.957, Fc1ccc(NC(=S)N2CCOCC2)cc1 1.27, CSc1sc(SC)c(Br)c1Br 1.11, Cn1nccc1-c1cc(C(=O)O)n[nH]1 1.22, Sc1nnc(COc2ccccc2)n1/N=C/c1ccccn1 0.965, CC(/C=C/c1ccccc1)=N\Nc1n[nH]c(=S)[nH]1 1.08, C1CCCN(c2nc3nonc3nc2N2CCCCCC2)CC1 1.07, N=C1SCC(=O)N1c1nonc1N 1.21, CCOC(=O)/C=C(/C)Nc1nonc1N(C(C)=O)C1CCCCC1 1.16, O=C(O)C1CSC(c2cccs2)N1 (stereo not given) 0.973, Cc1nn(CCc2nn[nH]n2)c(C)c1Cl 1.18, CC(C)CN(CC(C)C)C(=S)NC1CCCCC1 1.17, Cn1nc([N+](=O)[O-])nc1Oc1ccc2c(c1)OCO2 1.36, CCCCNC(=O)N1CCNC1=O 1.17, Nc1nonc1-c1noc(-c2ccc(Br)o2)n1 1.1, Nc1cc2c(cc1Cl)OCO2 1.04, C=CCCNS(=O)(=O)c1ccc(Cl)cc1 1.01, C1=C(C2CCNc3c2ccc2cccnc32)CCCC1 (stereo not given) 1.09, COCCCNc1ncnc2ccc(Br)cc12 0.402, CS(=O)(=O)Nc1ccc(Cl)c(C(F)(F)F)c1 1.06, CN1CCc2c(sc(N)c2C#N)C1 1.16, N=C1NC(c2ccc(Cl)cc2)=CC(c2ccc(F)cc2)S1 (stereo not given) 0.773, CCSc1sc(CC)cc1C(C)=O 1.09, Nc1nc2c(nc(N/N=C3/C(=O)Nc4ccccc43)n2C2OC(CO)C(O)C2O)c(=O)[nH]1 (stereo not given) 1.11, S=C1NC(C23CC4CC(CC(C4)C2)C3)=CC(c2ccc(Br)cc2)N1 (stereo not given) 0.83, CCCCN(CCCC)S(=O)(=O)c1ncn[nH]1 1, C(=N/c1c2ccccc2nc2ccccc12)/c1ccc2c(c1)OCO2 0.265, Cc1sc2nc3n(c(=O)c2c1C)CCCCC3 1.09, CC(=O)OC[C@H]1O[C@@H](n2cc(C)c(=O)[nH]c2=O)C[C@@H]1OC(C)=O 1.1, NC(=O)c1c(NC(=O)/C=C\C(=O)O)sc2c1CCC2 1.3, CSc1ncc(C#N)c(N)n1 1.09, Cc1n[n+]2c(Br)c(C)[n-]n2c1Br 1.11, O=S(=O)(c1ccc(Cl)s1)N1CCCCC1 1.19, O=S1(=O)OC(c2ccc(O)cc2)(c2ccc(O)cc2)c2ccccc21 1.2, N#Cc1cnn2cc([N+](=O)[O-])cnc12 1.24, Cc1cccc(-c2nnc3n2CC(C)S3)c1 (stereo not given) 1.05, N#Cc1c(N)sc2c1CCC2 1.23, N#C/C(=C1\CCCCN1)c1nnc2n1CCCCC2 0.978, O=C(Cc1n[nH]c(=O)[nH]c1=O)N/N=C/c1cc(=O)[nH]c(=O)[nH]1 1.58, Nc1ccc2[nH]c3c(c2c1)CCCC3 1.35, NC#Cc1cnn(-c2ccccc2)n1 1.21, c1ccc2c(c1)OCCOCCOCCO2 1.41, CCOCc1cnc(C)nc1N 1.28, Cc1cc(-c2cc(O)[nH]n2)n(C)n1 1.01, c1ccc(-c2nnc(-c3ccco3)c(-c3ccco3)n2)nc1 0.919, c1ccc(C2=NNC(c3nc4ccccc4[nH]3)C2)cc1 (stereo not given) 0.549, Cn1cccc1/C=N\NC(=O)CCCCCCCC(=O)N/N=C/c1cccn1C 0.914, Clc1cc(-n2cnnn2)ccc1Oc1cccnc1 1.03, C=C(C)C1CCC(C)C(OC(C)=O)C1 (stereo not given) 1.46, Cc1cc(C)c2c(=O)nc(SCc3cc(=O)n4ccccc4n3)n(C3CC3)c2n1 1.07, COc1ccc(-c2nnc(N3CCCC3)o2)cc1OC 1.01, Oc1c(Cl)cc(Cl)cc1/C=N/c1nccs1 1.66, Cc1[nH]nc2c1C1(CC[C@H]3CO[C@@H]1O3)C(C#N)=C(N)O2 (stereo not given in full) 0.958, CC(C)(C)CC(=O)Nc1nnc(CC(C)(C)C)s1 1.31, Fc1cccc(/C=N/N2CCN(C3c4ccccc4-c4ccccc43)CC2)c1 1.01, COc1ccc(C2CC(c3cc(OC)cc(OC)c3)=NC(=N)N2)cc1 (stereo not given) 1.37, C(S\C(=C(\C#N)C#N)NCC=C)c1ccncc1 1.11, CC1(C)CC2CC(C)(CN2c2ncnc3ccc(Br)cc23)C1 (stereo not given) 0.586, CCn1cc(/C=C\C(=O)c2ccc(C)o2)cn1 1.32, COc1cc2nc(SCc3nc4ccccc4n3C)[nH]c2cc1OC 1.31, C=CC[C@H]1CC(C)=C[C@@H](CC=C)N1C(C)=O 1.05, N/C(=N/N=C/c1cccn1-c1ccc(S(N)(=O)=O)cc1)c1nonc1N 1.14, Brc1ccc(N/N=N\c2ccccc2)cc1 1.01, O=C1CCCCc2sccc2N1 1.17, CSCCC(C(=O)O)N1C(=O)/C(=C2/C(=O)Nc3ccc(Br)cc32)SC1=S (stereo not given) 1.23, COc1ccc(C2Sc3ccccc3N=C3C2=C(O)c2ccccc23)cc1OC (stereo not given) 1.15, O=[N+]([O-])c1ccc2c(c1)OC1(CCCC1)O2 0.986, Cc1sc(/C=C(/C#N)C(N)=S)cc1Br 1.56, Nn1c(CO)nnc1SCc1cc(Cl)cc2c1OCOC2 0.968, CN(C)S(=O)(=O)NC1CCCCCC1 1.09, Cc1ccc(C2C(C#N)=C(N)Oc3[nH]nc(C)c32)s1 (stereo not given) 1.04, Cc1ccc(/C=N/n2nnnc2N)s1 0.982, N[C@@H]1c2ccccc2C[C@@H]1O 1.21, C/N=c1\sc(C(=O)OC)cc(=O)n1C 1.02, COc1ccc(C=O)cc1CSC1=NCCS1 1.48, Cn1c(=O)oc2ccc(S(=O)(=O)Nc3ccc4c(c3)n(C)c(=O)n4C)cc21 1.15, Cn1nnnc1SCC(=O)NC(C)(C)C 1.33, Cn1c(SC2CCOC2=O)nc2ccccc2c1=O (stereo not given) 1.42, O=C(O)c1c2c(nc3c1cnn3C1CCCC1)CCC2 1.05, Clc1ccc(Nc2ccc(-n3ccnc3)nn2)cc1 1, NCC(O)CN1CCOCC1 (stereo not given) 1.38, c1ccc(-n2c(SCc3nc4ccccc4[nH]3)nc3ccccc32)cc1 1.3, c1ccc(C(Sc2nc3ccccc3s2)c2ccccc2)cc1 1.08, CCn1cc(-c2cc[nH]n2)c(C)n1 1.05, N#C/C(=C\c1ccc(Br)s1)C(N)=S 1.04, O=[N+]([O-])c1ccc2[nH]c(C(F)(F)F)nc2c1 1.07, O=S(=O)(NC12CC3CC(CC(C3)C1)C2)c1cccs1 1.24, CNc1nc(C(N)=O)c(NC(=O)C23CC4CC(CC(C4)C2)C3)s1 1.43, O=S1(=O)N=C(OCc2ccccc2)c2ccccc21 1.12, CCCCc1ccc(C2=C(C#N)C(N)=C(C#N)C3=CCCCC32)s1 (stereo not given) 1.45, C=CCNS(=O)(=O)c1cc(S(=O)(=O)NCC=C)c(OC)cc1OC 1.16, CC(C)(C)c1ccc(CSc2nsc(SCc3ccc(C(C)(C)C)cc3)c2C#N)cc1 1.13, CN(CCC#N)S(=O)(=O)c1ccc2sc(=O)[nH]c2c1 1.07, NC(=O)c1c(N)sc2c1C1CCN2CC1 1.28, NC(=O)Cn1cc([N+](=O)[O-])nc1Cl 1.1, O=[N+]([O-])c1coc2c(Cl)c(Cl)c(O)cc12 1.14, O=C(N/N=C/c1ccc[nH]1)c1ccc(C(=O)N/N=C/c2ccc[nH]2)o1 1.41, O=[N+]([O-])c1ccc(Cl)c(N2CCCC2)c1 1.13, N#Cc1c(C(F)(F)F)cc(-c2cccs2)oc1=S 1.35, Brc1ccc(-c2nn3c(-c4ccccn4)nnc3s2)o1 1.03, C1CN(C2CCC3SC2CCC3N2CCOCC2)CCO1 (stereo not given) 1.12, CC(=O)CC(=O)N1CCOCC1 1.27, COC(=O)CCCC[C@@H]1SC[C@@H](N)[C@H]1O 1.1
